Literature values in US20230345942A1, “CORONA VIRUS KILLING AGENT” (SANKEI CO., LTD., priority 2020, published 2023).
Some of these results come from one statement about several compounds together.

Tested on: novel coronaviruses
Settings: organic matters thoroughly removed

OCl [Sodium hypochlorite]
Free chlorine concentration required for a virucidal effect: ≥ 35 ppm
